Laboratory results reported in patent US20240108662A1, “ENGINEERED CELLS FUNCTIONALIZED WITH IMMUNE CHECKPOINT MOLECULES AND USES THEREOF” (The University of North Carolina at Chapel Hill, priority 2020, published 2024).

B1: Q78XF5 (protein, UniProt Q78XF5 1-149, looked up)
chain: METLYRVPFLVLECPNLKLKKPPWVHMPSAMTVYALVVVSYFLITGGIIYDVIVEPPSVGSMTDEHGHQRPVAFLAYRVNGQYIMEGLASSFLFTMGGLGFIILDRSNAPNIPKLNRFLLLFIGFVCVLLSFFMARVFMRMKLPGYLMG
modifications: full-length
B2: Q9D8W7 (protein, UniProt Q9D8W7 1-154, looked up)
chain: MASVSTHGNQEKSPHLPPLSKQSLLFCPKSKLHIHRGEIAKIIRECQEESFWKRALPFSLISMLVTQGLVHQGYLAANPRFGSLPKVALAGLLGFGLGKASYIRVCQSKFHSFEDQLRGAGFGPEHNRHCLLTCEDCKTRRGLSEKAGSQPSAS
modifications: full-length
B3: Q91ZN5 (protein, UniProt Q91ZN5 1-431, looked up)
chain: MDARWWAVVVLATLPSLGAGGESPEAPPQSWTQLWLFRFLLNVAGYASFMVPGYLLVQYLRRKNYLETGRGLCFPLVKACVFGNEPKAPDEVLLAPRTETAESTPSWQVLKLVFCASGLQVSYLTWGILQERVMTGSYGATATSPGEHFTDSQFLVLMNRVLALVVAGLYCVLRKQPRHGAPMYRYSFASLSNVLSSWCQYEALKFVSFPTQVLAKASKVIPVMMMGKLVSRRSYEHWEYLTAGLISIGVSMFLLSSGPEPRSSPATTLSGLVLLAGYIAFDSFTSNWQDALFAYKMSSVQMMFGVNLFSCLFTVGSLLEQGALLEGARFMGRHSEFALHALLLSICSAFGQLFIFYTIGQFGAAVFTIIMTLRQAIAILLSCLLYGHTVTVVGGLGVAVVFTALLLRVYARGRKQRGKKAVPTEPPVQKV
modifications: full-length
B4: Q8C3X8 (protein, UniProt Q8C3X8 1-702, looked up)
chain: MASSRVPQQLFLQGVAAVYLFAFASLYTQIPGLYGPEGILPARRTLRPQGKGLWQQLWETPTLLWEAPRLGLDTAQGLDLLTLLGTVLALGALLLNSLRHPFVYLLLWVAYRSAYQVGQVFLYFQWDSLLLETGFLAILVAPLRGPSKHKILQGRLAGALPHEDLPFWLVRWLLFRLMFASGVVKLTSRCPTWWGLTALTYHYETQCLPTPAAWFAHHLPVWLHKLSVVATFLIEIAVPPLFFAPIRRLRLTAFYAQALLQVLIIITGNYNFFNLLTLVLTTALLDDRHLSAEPGLRCHKKMPTSWPKALLTALSLLLELTVYGLLAYGTVYYFGLEVDWQQHIILSKTTFTFHQFSQWLKTVTLPTVWLGTASLAWELLVVLWRWIQVQGWSRKFSAGIQLSVLGTATVALFLISLVPYSYVEPGTHGRLWTGAHRLFGSVEHLQLANSYGLFRRMTGVGGRPEVVLEGSYDGQHWTEIEFMYKPGNVSRPPPFLTPHQPRLDWQMWFAALGPHTHSPWFTGLVLRLLQGKEPVIRLVQSHVANYPFHERPPTYLRAQRYKYWFSKPGDQSRWWHRQWVEEFFPSVSLGDPTLETLLQQFGLKDKSPPRARSPSNGLAQTLNWVRTQLSPLEPPILLWGLFGAVVAIRVVQTLLAPRPLQSSKQTREEKRKQTSKKDSRAASEQAAANSNSRDSWAPRRKK
modifications: full-length
B5: Q9ERV1 (protein, UniProt Q9ERV1 1-416, looked up)
chain: MSTKQVTCRYFMHGVCREGSQCLFSHDLANSKPSTICKYYQKGYCAYGARCRYDHTKPPAAAGGAVGPAPNPSPSSGLHSPHPSPDIATSVMRTHSNEPGKREKKTLVLRDRNLTGLAEDKTPPSKVNNPGGCSDPQTSPEMKPHSYLDAIRTGLDDLEASSSYSNEPQLCPYAAAGECRFGDACVYLHGDMCEICRLQVLHPFDPEQRKAHEKMCMSTFEHEMEKAFAFQASQDKVCSICMEVILEKASASERRFGILSNCSHTYCLSCIRQWRCAKQFENPIIKSCPECRVISEFVIPSVYWVEDQNKKNELIEAFKQGMGKKACKYFEQGKGTCPFGSKCLYRHAYPDGRLAEPEKPRKQLSSEGTVRFFNSVRLWDFIENRETRQVPSTDDVDVTELGDLFMHLSGVESSEP
modifications: full-length
B6: Q9D8B3 (protein, UniProt Q9D8B3 1-224, looked up)
chain: MSVFGKLFGAGGGKAGKGGPTPQEAIQRLRDTEEMLSKKQEFLEKKIEQELTAAKKHGTKNKRAALQALKRKKRYEKQLAQIDGTLSTIEFQREALENANTNTEVLKNMGYAAKAMKAAHDNMDIDKVDELMQDIADQQELAEEISTAISKPVGFGEEFDEDELMAELEELEQEELDKNLLEISGPETVPLPNVPSVALPSKPAKKKEEEDDDMKELENWAGSM
modifications: full-length
B7: O08547 (protein, UniProt O08547 1-215, looked up)
chain: MVLLTMIARVADGLPLAASMQEDEQSGRDLQQYQSQAKQLFRKLNEQSPTRCTLEAGAMTFHYIIEQGVCYLVLCEAAFPKKLAFAYLEDLHSEFDEQHGKKVPTVSRPYSFIEFDTFIQKTKKLYIDSRARRNLGSINTELQDVQRIMVANIEEVLQRGEALSALDSKANNLSSLSKKYRQDAKYLNMRSTYAKLAAVAVFFIMLIVYVRFWWL
modifications: full-length
B8: O08912 (protein, UniProt O08912 1-559, looked up)
chain: MRKFAYCKVVLATSLVWVLLDMFLLLYFSECNKCEEKQERGLPAGDVLELVQKPHEGPGEMGKPVVIPKEDQEKMKEMFKINQFNLMASEMIALNRSLPDVRLEGCKTKVYPDNLPTTSVVIVFHNEAWSTLLRTVHSVINRSPRHMIEEIVLVDDASERDFLKRPLESYVKKLKVPVHVIRMEQRSGLIRARLKGAAVSRGQVITFLDAHCECTAGWLEPLLARIKHDRRTVVCPIIDVISDDTFEYMAGSDMTYGGFNWKLNFRWYPVPQREMDRRKGDRTLPVRTPTMAGGLFSIDRDYFQEIGTYDAGMDIWGGENLEISFRIWQCGGTLEIVTCSHVGHVFRKATPYTFPGGTGQIINKNNRRLAEVWMDEFKNFFYIISPGVTKVDYGDISSRLGLRRKLQCKPFSWYLENIYPDSQIPRHYFSLGEIRNVETNQCLDNMARKENEKVGIFNCHGMGGNQVFSYTANKEIRTDDLCLDVSKLNGPVTMLKCHHLKGNQLWEYDPVKLTLQHVNSNQCLDKATEEDSQVPSIRDCTGSRSQQWLLRNVTLPEIF
modifications: full-length
B9: P41216 (protein, UniProt P41216 1-699, looked up)
chain: MEVHELFRYFRMPELIDIRQYVRTLPTNTLMGFGAFAALTTFWYATRPKALKPPCDLSMQSVEIAGTTDGIRRSAVLEDDKLLVYYYDDVRTMYDGFQRGIQVSNNGPCLGSRKPNQPYEWISYKEVAELAECIGSGLIQKGFKPCSEQFIGLFSQNRPEWVIVEQGCFSYSMVVVPLYDTLGADAITYIVNKAELSVIFADKPEKAKLLLEGVENKLTPCLKIIVIMDSYGSDLVERGKKCGVEIISLKALEDLGRVNRVKPKPPEPEDLAIICFTSGTTGNPKGAMITHQNIINDCSGFIKATESAFIASTDDVLISFLPLAHMFETVVECVMLCHGAKIGFFQGDIRLLMDDLKVLQPTIFPVVPRLLNRMFDRIFGQANTSLKRWLLDFASKRKEAELRSGIVRNNSLWDKLIFHKIQSSLGGKVRLMITGAAPVSATVLTFLRTALGCQFYEGYGQTECTAGCCLSLPGDWTAGHVGAPMPCNYVKLVDVEEMNYLASKGEGEVCVKGANVFKGYLKDPARTAEALDKDGWLHTGDIGKWLPNGTLKIIDRKKHIFKLAQGEYIAPEKIENIYLRSEAVAQVFVHGESLQAFLIAVVVPDVESLPSWAQKRGLQGSFEELCRNKDINKAILDDLLKLGKEAGLKPFEQVKGIAVHPELFSIDNGLLTPTLKAKRPELRNYFRSQIDELYATIKI
modifications: full-length
B10: Q80X73 (protein, UniProt Q80X73 1-385, looked up)
chain: MKLVRKDIEKDNAGQVTLVPEEPEDMWHTFNLVQVGDSLRASTIRKVQTESSTGSVGSNRVRTTLTLCVEAIDFDSQACQLRVKGTNIQENEYVKMGAYHTIELEPNRQFTLAKKQWDSVVLERIEQACDPAWSADVAAVVMQEGLAHVCLVTPSMTLTRAKVEVNIPRKRKGNCSQHDRALERFYEQVVQAIQRHINFEVVKCVLVASPGFVREQFCDYMFQQAVKTDNKVLLENRSKFLQVHASSGHKYSLKEALCDPTVASRLSDTKAAGEVKALDDFYKMLQHEPDRAFYGLKQVERANEALAIDTLLISDELFRHQDVATRSRYVRLVDSVKENAGTVRIFSSLHVSGEQLGQLTGVAAILRFPVPELSDQEDDSSSEED
modifications: full-length
B11: P16330 (protein, UniProt P16330 1-420, looked up)
chain: MNTSFTRKSHTFLPKLFFRKMSSSGAKEKPELQFPFLQDEDTVATLHECKTLFILRGLPGSGKSTLARLILEKYHDGTKMVSADAYKIIPGSRADFSEAYKRLDEDLAGYCRRDIRVLVLDDTNHERERLDQLFEMADQYQYQVVLVEPKTAWRLDCAQLKEKNQWQLSADDLKKLKPGLEKDFLPLYFGWFLTKKSSETLRKAGQVFLEELGNHKAFKKELRHFISGDEPKEKLELVSYFGKRPPGVLHCTTKFCDYGKAAGAEEYAQQEVVKRSYGKAFKLSISALFVTPKTAGAQVVLTDQELQLWPSDLDKPSASEGLPPGSRAHVTLGCAADVQPVQTGLDLLDILQQVKGGSQGEAVGELPRGKLYSLGKGRWMLSLTKKMEVKAIFTGYYGKGKPVPIHGSRKGGAMQICTII
modifications: full-length
B12: Q63739 (protein, UniProt Q63739 1-173, looked up)
chain: MARMNRPAPVEVTYKNMRFLITHNPTNATLNKFIEELKKYGVTTIVRVCEATYDTTLVEKEGIHVLDWPFDDGAPPSNQIVDDWLSLVKIKFREEPGCCIAVHCVAGLGRAPVLVALALIEGGMKYEDAVQFIRQKRRGAFNSKQLLYLEKYRPKMRLRFKDSNGHRNNCCIQ
modifications: full-length
B13: P51881 (protein, UniProt P51881 1-298, looked up)
chain: MTDAAVSFAKDFLAGGVAAAISKTAVAPIERVKLLLQVQHASKQITADKQYKGIIDCVVRIPKEQGVLSFWRGNLANVIRYFPTQALNFAFKDKYKQIFLGGVDKRTQFWRYFAGNLASGGAAGATSLCFVYPLDFARTRLAADVGKAGAEREFKGLGDCLVKIYKSDGIKGLYQGFNVSVQGIIIYRAAYFGIYDTAKGMLPDPKNTHIFISWMIAQSVTAVAGLTSYPFDTVRRRMMMQSGRKGTDIMYTGTLDCWRKIARDEGSKAFFKGAWSNVLRGMGGAFVLVLYDEIKKYT
modifications: full-length

Assay: Proteomic analysis of native murine pancreata and decelled pancreatic ECM (Table 1)
Parameters: species or system mouse
Settings: Native pancreas tissue

Molecule	Mean of log2(intensities) [a.u.]
B1	27.56
B2	21.72
B3	21.65
B4	27.16
B5	21.68
B6	25.64
B7	28.01
B8	23.50
B9	24.38
B10	24.44
B11	24.45
B12	23.59

Same assay, conditions: Pancreatic ECM (decelled)

Molecule	Mean of log2(intensities) [a.u.]
B1	29.68
B2	23.83
B3	23.76
B4	29.24
B5	23.75
B6	27.55
B7	29.87
B8	25.31
B9	26.17
B10	26.22
B11	26.21
B12	25.34

Same assay, conditions: abundance of the listed protein in decelled pancreatic ECM

Molecule	Pancreatic ECM: Mean of log2(intensities) [a.u.]
B13	34.48

Same assay, conditions: abundance of the listed protein in native murine pancreas tissue

Molecule	Native pancreas tissue: Mean of log2(intensities) [a.u.]
B13	32.34
